# Test results taken from PubChem BioAssay AID504444 (National Center for Advancing Translational Sciences (NCATS), 2011).
# Hit rate of the full screen: of about 360,000 compounds, about 7,500 (2.1%) were called active. The shares of active, inactive and inconclusive entries below differ from those in the screen. Calls follow the shape of the dose curve; as a rule, active = well fitted inhibition curve with a large enough effect; inconclusive = small, poorly fitted or top-dose-only effect, or effect the other way; inactive = flat fitted curve, though single readings scatter. Where the call is inconclusive, the potency comes from a doubtful curve fit.
# Assay: Nrf2 qHTS screen for inhibitors; also: nearly all actives have a fitted effect of over 60% in size
# Conditions: A549 ARE-Fluc reporter, luciferase luminescence, 18-24 h; activity change, negative = inhibition: at 46 µM (top of the series)
# Procedure, shortened: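 Nrf2 function is reported as luminescence of an ARE-controlled luciferase in A549 cells. Compounds were tested at several concentrations, and a CellTiter-Fluor read on the same wells flagged cytotoxicity.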
# % is scaled to controls: 0 for no effect and ±100 for the full control effect; potency is read from the fitted curve at half-maximal effect.
Compound,Potency,"activity change, negative = inhibition"
COc1ccccc1-c1c(C)nn2c(N)c(-c3ccccc3)cnc12,"inconclusive: 29.1 µM [activator, single point]",–
O=C(COc1ccccc1Cl)NNC(=O)c1ccc2nc[nH]c2c1,"inconclusive: 32.6 µM [falling, single point]",–
O=C(N/N=C/C(Cl)=C\c1ccccc1)c1ccco1,"inconclusive: 9.2 µM [activator, partial curve]",–
CCc1ccccc1NC(=O)CSc1ncc2c(n1)-c1ccccc1N(C)S2(=O)=O,"inconclusive: 10.3 µM [activator, partial curve, poor fit]",–
O=C(OCc1cccc(Cl)c1)c1cc(S(=O)(=O)N2CCCCC2)ccc1N1CCOCC1,"inconclusive: 18.4 µM [falling, single point]",–
COc1ccc(-c2nc3cc(NC(=O)COc4ccc(F)cc4)ccc3o2)cc1,"inconclusive: 29.1 µM [falling, single point]",–
COc1ccc([N+](=O)[O-])cc1NCC(=O)Nc1cccc(S(=O)(=O)N2CCCC2)c1,"inconclusive: 29.1 µM [falling, single point]",–
O=C(CSc1nnc(-c2cccnc2)o1)OC1CCCCC1,"inconclusive: 13 µM [activator, partial curve, poor fit]",–
CCOc1ccc(-c2c(C(=O)N/N=C/c3cccs3)nnn2-c2nonc2N)cc1,active: 11.6 µM,–
CN(Cc1nc2ccccc2s1)C(=O)c1ccc(F)cc1,"inconclusive: 20.6 µM [activator, partial curve, poor fit]",–
Cc1ccccc1C[n+]1cccc2ccccc21,"inconclusive: 2.59 µM [falling, full curve]",–
CCn1cc(C(=O)NCCCO)c(=O)c2cc(F)c(N3CCN(C)CC3)cc21,inactive,–
COc1ccc(C(=O)c2ccc(OC)c(Br)c2)cc1Br,"inconclusive: 2.59 µM [activator, full curve]",–
CNc1ccc(Br)cc(C(=O)/C=C/c2ccc(Cl)cc2Cl)c1=O,"inconclusive: 29.1 µM [falling, single point]",–
CCCOc1ccc(NC(=O)CC2C(=O)N(C)C(=S)N2Cc2ccc3c(c2)OCO3)cc1 (stereo unspecified),"inconclusive: 29.1 µM [falling, single point]",–
CC(O)C(NS(=O)(=O)c1ccc(Cl)cc1)C(=O)OCC(=O)c1c[nH]c2ccccc12 (stereo unspecified),inactive,–
CCc1ccccc1NC(=O)C1=C(C)C(=O)OC12CCCCCC2,"inconclusive: 10.3 µM [activator, partial curve, poor fit]",–
CC1=C(C(=O)OCCOc2ccccc2)C(c2coc3ccccc3c2=O)C2=C(CCCC2=O)N1 (stereo unspecified),"inconclusive: 6.51 µM [falling, full curve, poor fit]",–
Cc1cccc(NC(=O)c2ccc(S(=O)(=O)NCc3cccnc3)cc2)c1,active: 11.6 µM,–
CCC(Oc1ccc(C)cc1)C(=O)Nc1ccc(S(=O)(=O)Nc2cc(C)on2)cc1 (stereo unspecified),"inconclusive: 20.6 µM [falling, partial curve]",–
COc1cc(-c2ccc(Nc3ccccc3C(=O)O)c(OC)c2)ccc1Nc1ccccc1C(=O)O,"inconclusive: 20.6 µM [activator, single point]",–
O=C(/C=C\c1ccccc1[N+](=O)[O-])Nc1ccccc1,"inconclusive: 20.6 µM [activator, partial curve]",–

Compound,Potency,"activity change, negative = inhibition"
CCCC(=O)Nc1ccc(-c2nc3cc(C)ccc3o2)cc1,"inconclusive: 3.66 µM [activator, full curve, poor fit]",–
Cc1cc(=O)oc2cc(NC(=O)C(C)Oc3ccc(F)cc3)ccc12 (stereo unspecified),inactive,–
CC(=O)n1nc(-c2ccncc2)nc1SCC(=O)Nc1cccc(Cl)c1,inactive,–
CCCOc1ccc(-c2nn(-c3ccccc3)cc2/C=C2\SC(N)=NC2=O)cc1,"inconclusive: 2.91 µM [activator, full curve, poor fit]",–
Cc1ccc(C)c(-c2[nH]c3c(c2-c2c(-n4cccc4)n(C)c(=O)[nH]c2=O)c(=O)[nH]c(=O)n3C)c1,inactive,–
Cc1ccc(Nc2ncccc2C(=O)O)cc1C,"inconclusive: 14.6 µM [activator, partial curve]",–
COC(=O)C1(c2ccccc2)NC(c2ccc(O)cc2)C2C(=O)N(c3ccc4c(c3)OCO4)C(=O)C21 (stereo unspecified),inactive,–
Cc1ccc(-c2nc(C3CCCN(S(=O)(=O)c4ccc(C)cc4)C3)no2)cc1 (stereo unspecified),"inconclusive: 29.1 µM [falling, single point]",–
CCN(C(=O)C(C)N1C(=O)/C(=C/c2cccs2)SC1=S)C1CCS(=O)(=O)C1 (stereo unspecified),"inconclusive: 25.9 µM [activator, single point]",–
O=C(COc1ccc(NC(=O)c2cccs2)cc1)c1ccc(F)cc1,active: 16.4 µM,–
CC(C)CN1CN(Cc2ccccc2)CNC1=S,inactive,–
CC(NC(=O)c1ccc(N(C)C)cc1)C(c1cccs1)N1CCN(C)CC1 (stereo unspecified),"inconclusive: 7.31 µM [activator, partial curve]",–
CCCCOc1cccc(C(=O)N(Cc2sccc2C)C2CCS(=O)(=O)C2)c1 (stereo unspecified),"inconclusive: 29.1 µM [falling, single point]",–
Cn1c(=O)n(C/C=C/c2ccccc2)c(=O)c2c1nc1n2CCCN1Cc1ccccc1,"inconclusive: 9.2 µM [falling, partial curve, poor fit]",–
Cc1cc(Nc2cccc(Cl)c2)nc2ccc(NC(=O)Cc3cccc(C(F)(F)F)c3)cc12,"inconclusive: 29.1 µM [falling, single point]",–
Cc1cccc(N2CCN(C(=O)CCCCn3c(=O)[nH]c4ccsc4c3=O)CC2)c1C,–,inactive: -33.6% [at 9.27 µM]
COc1cc(C2CC(=O)Nc3cc4c(cc32)OCCO4)cc(Br)c1OC (stereo unspecified),"inconclusive: 0.82 µM [activator, full curve, poor fit]",–
COCCN(CC(=O)Nc1cccc(C)c1C)C(=O)C1(c2ccccc2)CC1,inactive,–
COc1ccc(OC)c(NC(=O)c2cccc(NC(=O)c3ccccc3)c2)c1,"inconclusive: 29.1 µM [falling, single point]",–
Cc1ccc(-c2n[nH]c(=O)c3ccccc23)cc1S(=O)(=O)Nc1ccccc1,"inconclusive: 18.4 µM [falling, single point]",–
CCn1c(=O)c(C(=O)NNC(=O)c2ccccc2Cl)c(O)c2ccccc21,"inconclusive: 29.1 µM [falling, single point]",–
Nc1c(-c2ccccc2)cnc2c(-c3ccccc3)cnn12,"inconclusive: 1.64 µM [activator, full curve]",–

Compound,Potency,"activity change, negative = inhibition"
CC(C)c1nc2sc3c(=O)n(N)cnc3c2c2c1COC(C)(C)C2,inactive,–
COC(=O)c1ccc(COn2nnc3ccccc32)cc1,"inconclusive: 9.2 µM [activator, partial curve]",–
COc1ccc(C(=O)NC(=S)Nc2ccc3c4c(cccc24)CC3)cc1OC,active: 7.31 µM,–
COc1ccc(CNC(=O)C2CCC(CNC(=O)[C@@H]3Cc4ccccc4CN3)CC2)cc1 (stereo partly specified),"inconclusive: 23.1 µM [falling, single point]",–
C/C(=N\NC(=O)c1cccc(C)c1O)c1ccc(NC(=O)Cc2ccccc2)cc1,"inconclusive: 18.4 µM [activator, partial curve]",–
Cc1c2cnn(CC(=O)NCCc3ccccc3)c(=O)c2c(C)n1Cc1ccccc1,inactive,–
COc1ccc(/C=N/Nc2nc3ccccc3[nH]2)c(OC)c1OC,"inconclusive: 2.06 µM [activator, full curve, poor fit]",–
CC1CCN(C(=S)NC(=O)c2ccco2)CC1,"inconclusive: 11.6 µM [activator, partial curve, poor fit]",–
COc1ccc(OC)c(NC(=O)c2cccn2-c2nnc(N3CCCCC3)s2)c1,"inconclusive: 11.6 µM [activator, partial curve, poor fit]",–
COc1ccc(CNC(=O)c2cc3c(=O)oc4ccc(C)cc4c3s2)c(OC)c1,inactive,–
O=C(c1ccc2nc(Cc3ccccc3F)oc2c1)N1CC[C@H](O)C1,"inconclusive: 1.64 µM [activator, full curve]",–
COc1cc2c(cc1NC(=O)C1CCCO1)oc1ccccc12 (stereo unspecified),"inconclusive: 1.84 µM [activator, partial curve]",–
CC(=O)n1cc(/C=N/NC(=O)c2ccccc2O)c2ccccc21,"inconclusive: 18.4 µM [activator, single point]",–
Fc1ccc(-c2noc3ncnc(NC4CCCCC4)c23)cc1,inactive,–
O=c1c(=Nc2ccccc2O)c(=O)c2ccccc12,"inconclusive: 6.51 µM [activator, partial curve]",–
CCCCn1c(-c2ccc(OC(F)F)cc2)nc2c1c(=O)[nH]c(=O)n2CC(C)C,"inconclusive: 0.58 µM [falling, partial curve, poor fit]",–
CC(=O)Nc1ccc(-c2cc(N)n(-c3ccccc3)n2)cc1,"inconclusive: 7.31 µM [activator, partial curve]",–
O=C(CSCC(=O)N1CCCCC1)Nc1nc(-c2ccc(Cl)s2)cs1,inactive,–
CCCCC(C(=O)NCCC(C)C)N(CCCN1CCOCC1)C(=O)c1snc(C(N)=O)c1N (stereo unspecified),inactive,–
Nc1nc(-c2ccc(NC(=O)c3ccco3)cc2)cs1,"inconclusive: 5.17 µM [activator, single point]",–
Cc1cccc(N2C(=O)C(O)=C(C(=O)c3cccs3)C2c2ccc(C(C)C)cc2)n1 (stereo unspecified),"inconclusive: 16.4 µM [falling, single point]",–
CC(=O)N1c2ccc(S(=O)(=O)N3CCCC(C(=O)Nc4cccc(Cl)c4)C3)cc2CC1C (stereo unspecified),active: 6.51 µM,–

# Arranged by length of the SMILES (smallest number first): some entries from above
Compound,Potency,"activity change, negative = inhibition"
CCCC(=O)Nc1ccc(-c2nc3cc(C)ccc3o2)cc1,"inconclusive: 3.66 µM [activator, full curve, poor fit]",–
O=C(OCc1cccc(Cl)c1)c1cc(S(=O)(=O)N2CCCCC2)ccc1N1CCOCC1,"inconclusive: 18.4 µM [falling, single point]",–
CCCOc1ccc(NC(=O)CC2C(=O)N(C)C(=S)N2Cc2ccc3c(c2)OCO3)cc1 (stereo unspecified),"inconclusive: 29.1 µM [falling, single point]",–
